Values from PubChem BioAssay AID1508588 (Peter MacCallum Cancer Centre, 2020).
This is an unselected part of about 18,000 reagents. 790 of them (4.4%) count as active. 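Calls rest on a combination of fold-change classes in drug and vehicle arms, not all shown here.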 A number with no mark means an inactive call.

Aim: 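Genome-wide search for knock-downs that heighten vemurafenib action in melanoma cells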 (primary screen)
System: human WM266.4 melanoma cells (BRAF V600 mutant)
Reagents: siRNA pool against human genes, 40 nM
Timing: 96 h from transfection to read-out
Challenge: vemurafenib 300 nM (about IC25), added 48 h after transfection, for 48 h; comparison arm got DMSO vehicle only
Read-out: 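Ratios to non-targeting siRNA for cell gain, counted as DAPI nuclei after minus before drug and averaged over two replicates, and for absorbance-read medium lactate per cell; both binned into fold-change classes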
Reading the numbers: cell gain with vemurafenib: higher = more cell gain than with non-targeting siRNA; lactate per cell with vemurafenib: higher = more lactate made per cell
Call rule: 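Enhancement is called by pairing each knock-down's vehicle-arm and drug-arm fold-change classes for viability or glycolysis; which class combinations qualify is not given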
Meaning of the calls: active = enhances vemurafenib effect; inactive = no enhancement seen

target	cell gain with vemurafenib	lactate per cell with vemurafenib
TOM1L1 (target of myb1 like 1 membrane trafficking protein)	1.08	0.68
PLEKHG4 (pleckstrin homology and RhoGEF domain containing G4)	0.26	1.03
CLCN3 (Cl-/H+ antiporter 3)	0.81	0.36
TRAFD1 (TRAF-type zinc finger domain containing 1)	1.1	1.02
PPP1R26 (protein phosphatase 1 regulatory subunit 26)	0.82	0.7
SENP8 (SUMO peptidase family member, NEDD8 specific)	0.51	0.81
MNS1 (meiosis specific nuclear structural 1)	0.66 (active)	0
IMP4 (IMP U3 small nucleolar ribonucleoprotein 4)	0.09 (active)	0.4
C3orf22 (chromosome 3 open reading frame 22)	0.22	1.34
DSC2 (desmocollin 2)	1	0.32
LPAR1 (lysophosphatidic acid receptor 1)	1.42	0.99
MAN2A2 (mannosidase alpha class 2A member 2)	0.96	0.88
ASIC1 (acid sensing ion channel subunit 1)	0.53	1.77
AMY1A (amylase alpha 1A)	0.64 (active)	0.56
ZNF614 (zinc finger protein 614)	0.52	1.3
MGAT3	0.54	0.5
INS (insulin)	0.67	0.6
AKR1C4 (aldo-keto reductase family 1 member C4)	1.18	0.7
RBBP5	0.74	0.59
CCDC66 (coiled-coil domain containing 66)	0.47	1.23
GSTT1 (glutathione S-transferase theta 1)	1.21	0.88
IRAK1BP1 (interleukin 1 receptor associated kinase 1 binding protein 1)	0.8	0.86
TIMM8A (translocase of inner mitochondrial membrane 8A)	0.98	0.4
TP53TG5 (TP53 target 5)	0.65	1.48
TAAR9 (trace amine associated receptor 9)	0.55	0.51
TECPR2 (tectonin beta-propeller repeat containing 2)	0.31	0.92
NOD1 (nucleotide binding oligomerization domain containing 1)	0.9	1.02
ZNF709 (zinc finger protein 709)	0.93	1.25
IRF2BP1 (interferon regulatory factor 2 binding protein 1)	0.94	0.88
SPIN1 (spindlin 1)	0.88	0.91
CCDC25 (coiled-coil domain containing 25)	0.53	0.62
GGNBP2 (gametogenetin binding protein 2)	0.44	1.6
DNAJC11 (DnaJ heat shock protein family (Hsp40) member C11)	0.03	1.58
MAPRE1 (microtubule associated protein RP/EB family member 1)	1.2	1.17
NAA50 (N-alpha-acetyltransferase 50, NatE catalytic subunit)	0.43	0.85
GRXCR2 (glutaredoxin and cysteine rich domain containing 2)	0.92	0.82
THNSL1 (threonine synthase like 1)	0.71	0.65
CSRP3 (cysteine and glycine rich protein 3)	1.23	0.97
ANO1 (anoctamin 1)	0.52	1.33
ID3 (inhibitor of DNA binding 3)	0.83	0.82
DBP (D-box binding PAR bZIP transcription factor)	0.56	1.15
NOMO1 (NODAL modulator 1)	1.08	0.86
ZNF445 (zinc finger protein 445)	0.3	0.97
ZNF83 (zinc finger protein 83)	0.79	0.44
PCDH9 (protocadherin 9)	0.66 (active)	0.28
CST8 (cystatin 8)	1.21	0.88
C1R (complement C1r)	0.5	0.64
BFSP2 (beaded filament structural protein 2)	0.3	0.73
ATP11AUN (ATP11A upstream neighbor lncRNA)	1.06	0.62
CYP1A1 (cytochrome P450 family 1 subfamily A member 1)	0.12 (active)	0.11
RBMY1D (RNA binding motif protein Y-linked family 1 member D)	1.28	0.6
HMGCS2 (3-hydroxy-3-methylglutaryl-CoA synthase 2)	0.82	1.27
ARL2BP (ARF like GTPase 2 binding protein)	0.61	0.84
LRIF1 (ligand dependent nuclear receptor interacting factor 1)	0.79	0.86
SLC38A2	0.56	0.64
GCC2 (GRIP and coiled-coil domain containing 2)	0.49	0.84
NUP160 (nucleoporin 160)	0.7	0.6
SAP18 (Sin3A associated protein 18)	0.34	1.52
DCP1B (decapping mRNA 1B)	0.55	1.19
MAML2 (mastermind like transcriptional coactivator 2)	0.2	1.24
TP53I3 (tumor protein p53 inducible protein 3)	0.11	2.07
VPS35L (VPS35 endosomal protein sorting factor like)	0.51	1.74
PBX4 (PBX homeobox 4)	0.69	0.72
ZNF318 (zinc finger protein 318)	0.34	0.92
GLRA4 (glycine receptor alpha 4 (pseudogene))	0.74	1.19
EXPH5 (exophilin 5)	0.42	1.56
FIBIN (fin bud initiation factor homolog)	0.74	1.25
OGN (osteoglycin)	0.89	0.3
SRR (serine racemase)	0.57	1.25
COQ9 (coenzyme Q9)	0.64	0.61
OR6N2 (olfactory receptor family 6 subfamily N member 2)	0.46	0.4
MYL9 (myosin light chain 9)	0.63	1.04
CLP1 (cleavage factor polyribonucleotide kinase subunit 1)	0.21	1.4
ETV7 (ETS variant transcription factor 7)	0.83	0.63
TARS3 (threonyl-tRNA synthetase 3)	0.51	0.88
MIR22HG (MIR22 host gene)	0.71	0.75
DDX19B (DEAD-box helicase 19B)	0.15	3.15
C1RL (complement C1r subcomponent like)	0.66	1.06
SKP2 (S-phase kinase associated protein 2)	0.59	1.11
DIO1 (iodothyronine deiodinase 1)	-0.01	2.2
OR5AR1 (olfactory receptor family 5 subfamily AR member 1)	0.52	0.6
FAM221A (family with sequence similarity 221 member A)	1.43	0.69
PEA15 (proliferation and apoptosis adaptor protein 15)	0.46	1.42
VRTN (vertebrae development associated)	0.7	0.34

Hits (from the list above):
target	cell gain with vemurafenib	lactate per cell with vemurafenib
MNS1 (meiosis specific nuclear structural 1)	0.66 (active)	0
IMP4 (IMP U3 small nucleolar ribonucleoprotein 4)	0.09 (active)	0.4
AMY1A (amylase alpha 1A)	0.64 (active)	0.56
PCDH9 (protocadherin 9)	0.66 (active)	0.28
CYP1A1 (cytochrome P450 family 1 subfamily A member 1)	0.12 (active)	0.11
